Substitutions are numbered along the chain they refer to. These are yes or no findings as the source states them, for the method shown. Binding seen in cells or lysates may run through a third protein. Some entries that bind do so weakly or less than the wild type. Tags and fused reporters may be left off the sequences shown.

Chains of the proteins cited; added tags and fusions are not shown. Lines headed by an entry give the natural chain unless they say otherwise; changes in a name come on top. A line that says so, or that is headed by a name, gives the form on record, which may keep a tag or linker.
GATA4 p.P394T variant, HA-tagged (P43694-1, form named): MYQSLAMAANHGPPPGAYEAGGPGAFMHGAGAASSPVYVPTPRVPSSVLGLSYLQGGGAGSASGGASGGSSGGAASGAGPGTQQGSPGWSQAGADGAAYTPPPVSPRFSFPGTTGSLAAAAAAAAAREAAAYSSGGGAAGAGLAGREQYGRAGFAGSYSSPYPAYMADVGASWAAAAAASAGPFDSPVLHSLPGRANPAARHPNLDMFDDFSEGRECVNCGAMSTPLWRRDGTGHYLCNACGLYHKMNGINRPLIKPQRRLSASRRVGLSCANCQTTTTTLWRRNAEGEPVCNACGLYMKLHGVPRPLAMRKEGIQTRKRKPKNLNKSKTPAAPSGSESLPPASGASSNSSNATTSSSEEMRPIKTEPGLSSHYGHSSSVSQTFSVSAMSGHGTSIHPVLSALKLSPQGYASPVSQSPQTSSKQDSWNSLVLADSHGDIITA

Assay [1] deals with T1, Friend of GATA 2 protein (FOG2, ZFPM2), wild-type, Myc-DDK-tagged (human) (UniProt Q8WW38).
T1 sequence: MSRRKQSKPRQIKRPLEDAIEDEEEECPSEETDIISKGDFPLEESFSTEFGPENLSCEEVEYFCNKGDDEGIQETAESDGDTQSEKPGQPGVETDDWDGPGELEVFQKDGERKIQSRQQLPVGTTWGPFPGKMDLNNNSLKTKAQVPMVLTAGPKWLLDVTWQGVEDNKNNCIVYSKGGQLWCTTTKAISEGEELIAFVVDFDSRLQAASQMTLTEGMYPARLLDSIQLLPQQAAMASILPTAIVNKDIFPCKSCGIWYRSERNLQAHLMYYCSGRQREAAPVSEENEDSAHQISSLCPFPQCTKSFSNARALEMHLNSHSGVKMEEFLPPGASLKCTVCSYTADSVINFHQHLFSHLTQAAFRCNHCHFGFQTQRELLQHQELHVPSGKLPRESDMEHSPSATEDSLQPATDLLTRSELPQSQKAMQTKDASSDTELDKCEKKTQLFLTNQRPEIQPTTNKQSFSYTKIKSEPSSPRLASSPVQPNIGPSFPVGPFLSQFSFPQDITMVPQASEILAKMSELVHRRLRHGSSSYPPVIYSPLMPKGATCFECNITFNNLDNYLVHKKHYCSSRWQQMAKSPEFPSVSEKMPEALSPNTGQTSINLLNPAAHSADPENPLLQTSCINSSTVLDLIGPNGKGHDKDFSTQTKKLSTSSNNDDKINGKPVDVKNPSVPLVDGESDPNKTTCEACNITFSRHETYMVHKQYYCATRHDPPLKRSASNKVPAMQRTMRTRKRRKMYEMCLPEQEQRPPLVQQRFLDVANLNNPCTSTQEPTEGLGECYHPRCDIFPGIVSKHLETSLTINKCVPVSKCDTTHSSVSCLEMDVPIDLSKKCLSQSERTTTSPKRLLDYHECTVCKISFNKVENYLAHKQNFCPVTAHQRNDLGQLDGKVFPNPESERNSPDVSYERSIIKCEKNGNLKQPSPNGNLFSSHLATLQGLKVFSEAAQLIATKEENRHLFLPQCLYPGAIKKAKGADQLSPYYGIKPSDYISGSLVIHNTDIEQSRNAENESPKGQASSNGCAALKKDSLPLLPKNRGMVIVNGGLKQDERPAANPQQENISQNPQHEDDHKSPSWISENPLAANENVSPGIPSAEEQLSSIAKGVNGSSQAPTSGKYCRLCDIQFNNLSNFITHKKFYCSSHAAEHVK
The assay can be described thus: co-IP; HEK293-T cells co-transfected with GATA4-HA (wild-type or variant) and ZFPM2-Myc-DDK; Pierce IP lysis buffer; IP with rabbit anti-FLAG overnight at 4°C, protein A/G plus agarose, PBS washes; Western blot of the IP with anti-GATA4.

In assay [2] the target is T2, ZFPM2 (FOG2) p.L335V variant, Myc-DDK-tagged (human) (UniProt Q8WW38).
T2 sequence: T1 sequence with L335V
The description is as above.

With “GATA4 p.P394T variant, HA-tagged (from UniProt P43694-1 1-442)”, the binding entry in assay [1] and in assay [2] was “binds” each time.

Values taken from article PMC7057099.
